Laboratory results reported in patent US20150329638A1 (Biogen, published 2015).
Changes are numbered by the printed parent chain. These are yes or no findings as the source states them, for the method shown. Some results given as binding are weak or reduced against the parent protein; the word gives no strength. Values belong to the binder of their own block, whether it stands above or below them.

Tests used:
[1] = target: cyno monkey DR6 (cyno monkey); experiment: binding assay, format not described
rat DR6 = target: T1, rat DR6 (rat, UniProt D3ZF92 42-655); experiment: binding to rat DR6 (FIG. 6)
T1 construct: Full length rat DR6 expressed on transfected HEK293 cells
T1 sequence: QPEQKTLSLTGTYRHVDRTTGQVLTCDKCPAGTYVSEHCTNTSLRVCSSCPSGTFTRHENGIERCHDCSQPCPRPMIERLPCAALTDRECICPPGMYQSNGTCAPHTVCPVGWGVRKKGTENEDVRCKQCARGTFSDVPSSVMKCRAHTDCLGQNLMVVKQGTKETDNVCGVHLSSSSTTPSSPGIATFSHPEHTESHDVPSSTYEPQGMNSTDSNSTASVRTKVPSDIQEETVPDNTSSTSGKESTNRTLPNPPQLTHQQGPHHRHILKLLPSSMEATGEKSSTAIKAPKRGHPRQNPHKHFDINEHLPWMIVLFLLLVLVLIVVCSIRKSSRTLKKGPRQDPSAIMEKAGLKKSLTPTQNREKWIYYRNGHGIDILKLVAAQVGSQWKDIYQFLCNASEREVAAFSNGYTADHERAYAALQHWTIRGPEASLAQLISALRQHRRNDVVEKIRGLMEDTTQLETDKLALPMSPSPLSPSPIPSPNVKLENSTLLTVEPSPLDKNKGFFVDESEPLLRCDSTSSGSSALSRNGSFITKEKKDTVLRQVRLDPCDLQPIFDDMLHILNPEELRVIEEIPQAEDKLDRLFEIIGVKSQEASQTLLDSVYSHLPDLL

- binding [1]: binds
B1: M53-E04 (Fab, V domains shown)
VH: EVQLLESGGGLVQPGGSLRLSCAASGFTFSNYEMSWVRQAPGKGLEWVSSIYSSGGETLYADSVKGRFTISRDNSKNTLYLQMNSLRAEDTAVYYCARDGAADYWGQGTLVTVSS
VL: QSELTQPPSASGTPGQWVTISCSGSTSNIGNNYVYWYQQLPGTAPKLLIYTNNQRPSGVPDRFSGSKSGTSASLAISGLRSEDEADYYCATWDDSLYAPVFGGGTKVTVL
notes: The format in the assay (Fab or full IgG) is therefore not certain; also called EO4 antibody; E04 mAb

- binding [1]: binds
B2: 1P5D10.2 (antibody, V domains shown)
VH: EVQLVESGGGLVKPGGSLKLSCAASGFTFSDYYMYWVRQTPEKRLEWVATISDGGLYTYYQDSVKGRFTISRDNAKNNLYLQMSSLKSEDTAMYYCAREDDYDGDFYTMDYWGQGTSVTVSS
VL: QIVLTQSPAIMSASPGEKVTITCSASSSVSYMHWFQQKPGTSPKLWIYSTSNLASGVPARFSGSGSGTSYSLTISRMEAEDAATYYCQQRSSYPLTFGAGTKLELK
notes: Murine monoclonal antibody from a hybridoma; also called DR6 antagonist monoclonal antibody 5D10; anti-DR6 antibody 5D10

- binding (rat DR6): binds
B3: 5D10Y57A (antibody, V domains shown)
VH: B2 VH with Y57A
VL: B2 VL
